Assay results taken from PubChem BioAssay AID1487 (National Center for Advancing Translational Sciences (NCATS), 2009).
Some of the results follow. The main result of the screen is listed elsewhere. These columns were measured beside it and carry no call. Most of these compounds were active or inconclusive in the main read-out, so they are no random draw. Potencies come from curve fits of mixed quality, noted in brackets.

Test: qHTS Assay for Modulators of Lamin A Splicing
Conditions: HeLa LMNA splicing GFP/RFP minigene ratio, 48 h
Outline: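 Read-out is the ratio of GFP to DsRed2 object intensity, acquired by 488 nm laser-scanning cytometry on HeLa lamin A-EGFP minigene reporter cells. Compound incubation 48 hrs at 37 °C in Opti-MEM with 2% FBS; DMSO 0.5% final.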

[1] = measured here: RFP viability control channel
[2] = measured here: GFP splicing reporter channel

SMILES | AC50 [1] | AC50 [2]
COc1ccc(Br)cc1CNC(=O)c1cc2n(n1)CCCN(Cc1ccc(C)cc1)C2=O | 1.58 µM [falling, partial curve, poor fit] | 
COC(=O)c1ccccc1NC(=O)CSc1nc2ncccc2[nH]1 | 0.0251 µM [falling, full curve, poor fit] | 
O=C(COc1ccccc1)Nc1ccc(N2CCN(C(=O)c3cccs3)CC2)cc1 | 2.51 µM [falling, partial curve] | 7.94 µM [falling, partial curve]
O=C1C(=O)c2c(C(=O)c3ccccc3)coc2-c2ccccc21 | 35.5 µM [falling, partial curve] | 35.5 µM [falling, single point]
N#CC1=C(S)N=C(N)C(c2nc(-c3ccccc3)cs2)C12CCCCC2 (stereo unspecified) | 12.6 µM [rising, single point] | 
Cc1ccc(/C=N/NC(=O)c2cc(C3CC3)nc3ccccc23)o1 | 11.2 µM [rising, partial curve] | 
Cc1ccc(C2c3[nH]c4ccccc4c3CCN2C(=O)c2cccc(C)c2)cc1 (stereo unspecified) | 3.98 µM [rising, single point] | 0.158 µM [rising, full curve, poor fit]
O=S(=O)(Nc1nc2c(s1)CCCC2)c1ccc2ccccc2c1 | 15.8 µM [rising, single point] | 
CCCC(C(=O)n1nc(C)cc1C)C(NS(=O)(=O)c1ccc(C)cc1)c1ccccc1 (stereo unspecified) | 17.8 µM [rising, single point] | 35.5 µM [rising, single point]
CC1CC(OC(=O)C(O)c2ccccc2)CC(C)(C)N1C (stereo unspecified) | 35.5 µM [falling, single point] | 35.5 µM [falling, single point]
CCCn1c2c(c(=N)c3c1CCC3)CCCC2 | 6.31 µM [rising, partial curve] | 2 µM [rising, full curve]
CCC(Sc1ncnc2c1c(-c1ccccc1)cn2-c1ccc(OC)cc1)C(=O)OC (stereo unspecified) | 6.31 µM [rising, partial curve, poor fit] | 
O=C(CSC1=NCCS1)NCc1ccco1 | 25.1 µM [rising, single point] | 
CCC(Cc1ccccc1)NC(=O)C1=C(C)C(=O)OC12CCC(C)CC2 (stereo unspecified) | 0.0398 µM [falling, full curve, poor fit] | 
Cc1ccc(N2C(=O)c3ccccc3C2C(=O)c2ccc(O)cc2O)cc1 (stereo unspecified) | 14.1 µM [rising, partial curve] | 
Cc1c(NC(=O)Nc2cccs2)cccc1[N+](=O)[O-] | 12.6 µM [falling, single point] | 12.6 µM [falling, single point]
Cc1ccc(-n2ncc(C(=O)NCc3cccs3)c2C2CCN(C(=O)OC(C)(C)C)CC2)c(C)c1 | 11.2 µM [rising, single point] | 
CSc1nc2ccc(NC(=O)c3ccc(=O)n(C)n3)cc2s1 | 35.5 µM [falling, single point] | 
Cc1cc(C)n(CCc2nc(-c3ccc(-c4ccccc4)cc3)cs2)n1 | 14.1 µM [rising, partial curve] | 

SMILES | AC50 [1] | AC50 [2]
Cc1cccc2cc(CN(Cc3ccco3)S(=O)(=O)c3ccc4c(c3)OCCO4)c(=O)[nH]c12 | 12.6 µM [rising, partial curve] | 10 µM [rising, partial curve]
CCN(CC)CCOC(=O)c1cccc(Br)c1 | 0.0112 µM [falling, full curve, poor fit] | 
COc1ccc(-c2cn3c(C)c(C(=O)Nc4cc(NC(C)=O)ccc4OC)sc3n2)cc1 | 5.62 µM [rising, partial curve] | 
CCC(c1nnnn1Cc1ccco1)N(Cc1ccccc1OC)Cc1cc2cc(C)ccc2[nH]c1=O (stereo unspecified) |  | 7.94 µM [rising, partial curve]
O=c1cc(O)c2sc3nc(-c4cccnc4)cc(C(F)(F)F)c3c2[nH]1 | 1.12 µM [rising, partial curve, poor fit] | 
OCC(CO)NC1C[C@](O)(CO)[C@@H](O)[C@H](O)[C@H]1O (stereo partly specified) | 11.2 µM [falling, single point] | 1.26 µM [falling, single point]
CCn1c(CNc2ccc(Cl)cc2)nnc1SCc1ccc(Cl)cc1 | 35.5 µM [rising, single point] | 
COc1cccc(C(=O)Nc2cccc(C(=O)OCc3cc(=O)n4nc(C(C)C)sc4n3)c2)c1 | 0.0355 µM [falling, full curve, poor fit] | 0.0794 µM [falling, full curve, poor fit]
CC(C)C(C(=O)Nc1nccs1)c1ccc(Cl)cc1 (stereo unspecified) | 11.2 µM [rising, partial curve, poor fit] | 
CCCC(CCC)C(=O)Nc1ccc2c(c1)N(C(=O)CCN1CCN(C)CC1)c1ccccc1CC2 |  | 0.447 µM [falling, single point]
CCn1c2ccccc2c2cc(NC(=O)c3ccc(C)c([N+](=O)[O-])c3)ccc21 | 11.2 µM [rising, partial curve] | 11.2 µM [rising, single point]
c1ccc2c3c([nH]c2c1)-c1[nH]ncc1CC3 | 5.62 µM [rising, partial curve, poor fit] | 
CCn1c(CSc2nc3ccccc3s2)nnc1SCC(=O)OC(C)(C)C | 31.6 µM [rising, single point] | 
CC1CN=C2C(C(=O)Nc3ccccc3)=C(O)CC(c3ccccc3)N21 (stereo unspecified) | 35.5 µM [falling, single point] | 
CC(C)Cc1csc(NC(=O)c2ccc(F)cc2)c1C(=O)O | 35.5 µM [rising, single point] | 
CN(c1ccc(C(=O)NCc2ccncc2)cc1)S(C)(=O)=O | 25.1 µM [rising, single point] | 22.4 µM [rising, single point]
CC1(C)SC(=S)N(NC(=O)Nc2cccc3ccccc23)C1N(O)C(=O)Nc1ccccc1 (stereo unspecified) | 20 µM [rising, single point] | 11.2 µM [rising, single point]
O=C(NCc1ccccn1)c1ccc(-c2ccccc2)cc1 | 1.26 µM [falling, partial curve, poor fit] | 
COc1ccc(C(=O)NCC(=O)OCC(=O)Nc2sccc2C#N)cc1OC | 0.0112 µM [falling, full curve] | 

Not a retest: an excerpt of the list.
SMILES | AC50 [1] | AC50 [2]
O=C(COc1ccccc1)Nc1ccc(N2CCN(C(=O)c3cccs3)CC2)cc1 | 2.51 µM [falling, partial curve] | 7.94 µM [falling, partial curve]
O=C1C(=O)c2c(C(=O)c3ccccc3)coc2-c2ccccc21 | 35.5 µM [falling, partial curve] | 35.5 µM [falling, single point]
N#CC1=C(S)N=C(N)C(c2nc(-c3ccccc3)cs2)C12CCCCC2 (stereo unspecified) | 12.6 µM [rising, single point] | 
Cc1ccc(/C=N/NC(=O)c2cc(C3CC3)nc3ccccc23)o1 | 11.2 µM [rising, partial curve] | 

(continued)

SMILES | AC50 [1] | AC50 [2]
Brc1ccc(CSc2nnc(Cc3c[nH]c4ccccc34)o2)cc1 | 15.8 µM [rising, single point] | 
CC1Cc2ccccc2N1C(=O)Cn1nnc(-c2ccccc2NC(=O)C2CCC2)n1 (stereo unspecified) | 35.5 µM [rising, single point] | 
COc1cc(C(=O)Sc2ccc(Cl)cc2)cc(OC)c1OC | 17.8 µM [falling, partial curve] | 14.1 µM [falling, partial curve]
CCOC(=O)C(=O)Nc1sc(C(=O)N(CC)CC)c(C)c1C#N | 35.5 µM [falling, single point] | 
Cc1cc(-c2csc(NC(=O)c3ccc(C#N)cc3)n2)c(C)n1Cc1ccco1 | 31.6 µM [rising, single point] | 22.4 µM [rising, single point]
CC1=C(c2ccc(C)c(C)c2)S(=O)(=O)N=C1N1CCC(C(=O)NCc2ccc(C)o2)CC1 | 0.00891 µM [falling, full curve] | 0.00282 µM [falling, full curve, poor fit]
Cc1c(C(=O)Nc2cnccn2)oc2ccccc12 | 10 µM [rising, partial curve, poor fit] | 
CCOc1ccc(-c2nc(C#N)c(NCCCOC)o2)cc1 | 35.5 µM [rising, single point] | 
O=S(=O)(Cc1cc(-c2ccccc2)no1)c1ccccc1 | 0.00562 µM [falling, full curve, poor fit] | 
CC(=O)c1cccc(NC(=O)CCCOc2ccc(C)cc2)c1 |  | 12.6 µM [rising, single point]
COc1ccccc1-c1cncnc1N(C)Cc1ccco1 | 25.1 µM [falling, single point] | 
Cc1c(NC(=O)/C(C#N)=C/c2ccc(-c3cc(Cl)ccc3Cl)o2)c(=O)n(-c2ccccc2)n1C | 11.2 µM [falling, partial curve, poor fit] | 17.8 µM [falling, single point]
CSCc1ccc(C(=O)NCc2ccc(F)cc2)cc1 | 0.0224 µM [rising, full curve] | 
Cc1ccc(SCCC(=O)N2CCC(C)CC2)cc1 | 12.6 µM [rising, partial curve] | 35.5 µM [rising, single point]
Cc1cccc(N=Nc2ccc(O)c3ncccc23)c1 | 14.1 µM [rising, partial curve] | 
Cn1c(=O)oc2cc(S(=O)(=O)N3CCCC(C(=O)NCC4COc5ccccc5O4)C3)ccc21 (stereo unspecified) | 35.5 µM [rising, single point] | 
c1csc(-c2noc(COc3ccc4c(c3)CCCC4)n2)c1 | 31.6 µM [rising, single point] | 
COc1cccc(C2C(C(=O)Nc3ccc(C)cc3C)=C(C)Nc3c(C(=O)Nc4cccc(C)c4)cnn32)c1OC (stereo unspecified) |  | 0.00447 µM [rising, full curve, poor fit]
Cc1nnc(NS(=O)(=O)c2ccc(N)cc2)s1 | 4.47 µM [falling, full curve, poor fit] | 0.000794 µM [falling, full curve, poor fit]
